No constants are given. Whether binding was seen depends on the method and setting. Binding seen in cells or lysates may run through a third protein. Some entries that bind do so weakly or less than the wild type.
Target: Sp1 (human (endogenous in SPC-A1/DTX)), P08047
Experiment: co-IP; Co-IP kit (Thermo Fisher); antibodies against Sp1, HDAC1 and HDAC4 coupled into spin columns; pre-cleared SPC-A1/DTX cell lysate; western blot
Details: remark: other sources report otherwise

binding: binds
B1: HDAC4, P56524 1-1084 (enzyme)
chain: MSSQSHPDGLSGRDQPVELLNPARVNHMPSTVDVATALPLQVAPSAVPMDLRLDHQFSLPVAEPALREQQLQQELLALKQKQQIQRQILIAEFQRQHEQLSRQHEAQLHEHIKQQQEMLAMKHQQELLEHQRKLERHRQEQELEKQHREQKLQQLKNKEKGKESAVASTEVKMKLQEFVLNKKKALAHRNLNHCISSDPRYWYGKTQHSSLDQSSPPQSGVSTSYNHPVLGMYDAKDDFPLRKTASEPNLKLRSRLKQKVAERRSSPLLRRKDGPVVTALKKRPLDVTDSACSSAPGSGPSSPNNSSGSVSAENGIAPAVPSIPAETSLAHRLVAREGSAAPLPLYTSPSLPNITLGLPATGPSAGTAGQQDAERLTLPALQQRLSLFPGTHLTPYLSTSPLERDGGAAHSPLLQHMVLLEQPPAQAPLVTGLGALPLHAQSLVGADRVSPSIHKLRQHRPLGRTQSAPLPQNAQALQHLVIQQQHQQFLEKHKQQFQQQQLQMNKIIPKPSEPARQPESHPEETEEELREHQALLDEPYLDRLPGQKEAHAQAGVQVKQEPIESDEEEAEPPREVEPGQRQPSEQELLFRQQALLLEQQRIHQLRNYQASMEAAGIPVSFGGHRPLSRAQSSPASATFPVSVQEPPTKPRFTTGLVYDTLMLKHQCTCGSSSSHPEHAGRIQSIWSRLQETGLRGKCECIRGRKATLEELQTVHSEAHTLLYGTNPLNRQKLDSKKLLGSLASVFVRLPCGGVGVDSDTIWNEVHSAGAARLAVGCVVELVFKVATGELKNGFAVVRPPGHHAEESTPMGFCYFNSVAVAAKLLQQRLSVSKILIVDWDVHHGNGTQQAFYSDPSVLYMSLHRYDDGNFFPGSGAPDEVGTGPGVGFNVNMAFTGGLDPPMGDAEYLAAFRTVVMPIASEFAPDVVLVSSGFDAVEGHPTPLGGYNLSARCFGYLTKQLMGLAGGRIVLALEGGHDLTAICDASEACVSALLGNELDPLPEKVLQQRPNANAVRSMEKVMEIHSKYWRCLQRTTSTAGRSLIEAQTCENEEAETVTAMASLSVGVKPAEKRPDEEPMEEEPPL

Reference: paper PMC4102813
